Data as given in patent US20030104507A1, “Method for detection of ATP” (priority 2001, published 2003).
Some of these results come from one statement about several compounds together.

Test system: ATPase activity endogenous to L929 cell lysate
Experiment: Detergent inhibition of ATPase endogenous to L929 cell lysate (ATP remaining by luciferase luminescence, 22° C.)
Type: biochemical
Description: Three separate detergents in each of four detergent classes were tested: anionic [SDS (Sodium dodecyl sulfate), Bioterge (an α olefin sulfate), and sodium deoxycholate], nonionic [TRITON X-100, BigCHAP (N,N-bis(3-D-Gluconamidopropyl)cholamide) and THESIT (polyethylene glycol 400 dodecyl ether, Fluka, #88315)], cationic [BDDABr (Benzyldimethyldodecylammonium bromide), CTAB (Cetyltrimethylammonium bromide), and DTAB (dodecyltrimethylammonium bromide)] and zwitterionic [CHAPS (3[(3-Cholamidopropyl)dimethylammonio]propanesulfonic acid), CHAPSO (3-([3-Cholamidopropyl]dimethylammonio)-2-hydroxy-1-propanesulfonate), and Sulfobetaine 3-10 ([…]-N,N-dimethyl-3-ammonio-1-propanesulfonate)]. Detergents were obtained from Sigma, Fluka and Aldrich. […]
At various timepoints, 20 μl from each sample/detergent mixture was added to a 96-well luminometer plate in triplicate, and then 100 μl of a solution (“luciferase-luciferin” or “L/L reagent”) containing 25 mM HEPES buffer (pH 7.5), 40 μg luciferase enzyme LucPpe2m146 (Promega, E140), 100 μM luciferin (Promega), and 10 mM MgSO4 was added to each well. […] After mixing the contents of the plate, light output was measured with a Dynex MLX microtiter plate luminometer (Chantilly, Va.), 0.5 second reads per well with the first measurement taken five minutes after the detergent solution was combined with the sample. […]

Row | Structure (SMILES) | concentrations which resulted in a 25% or greater decrease in the relative ATPase activity (compared to reactions in the absence of detergent) | more ATP present in the sample after four hours than samples without these detergents (BDDABr 0.5%, DTAB 0.5% and 1.0%)
1 | CCCCCCCCCCCCCCCC[N+](C)(C)C.[Br-] [CTAB, Cetyltrimethylammonium bromide] | ≥ 0.02% | –
2 | CCCCCCCCCCCC[N+](C)(C)C.[Br-] [DTAB, dodecyltrimethylammonium bromide] | – | at least 25 fold
